Measurements reported in article PMC5934766.
Results are given in words; binding and its absence hold for the method and conditions named. In cells and extracts the contact can be indirect. Some entries that bind do so weakly or less than the wild type. Where a sequence is shown, tags or fusion partners need not be part of it.

T1: MARCH6 C9A-HA (catalytically inactive MARCH6) (human) (UniProt O60337)
T1 sequence: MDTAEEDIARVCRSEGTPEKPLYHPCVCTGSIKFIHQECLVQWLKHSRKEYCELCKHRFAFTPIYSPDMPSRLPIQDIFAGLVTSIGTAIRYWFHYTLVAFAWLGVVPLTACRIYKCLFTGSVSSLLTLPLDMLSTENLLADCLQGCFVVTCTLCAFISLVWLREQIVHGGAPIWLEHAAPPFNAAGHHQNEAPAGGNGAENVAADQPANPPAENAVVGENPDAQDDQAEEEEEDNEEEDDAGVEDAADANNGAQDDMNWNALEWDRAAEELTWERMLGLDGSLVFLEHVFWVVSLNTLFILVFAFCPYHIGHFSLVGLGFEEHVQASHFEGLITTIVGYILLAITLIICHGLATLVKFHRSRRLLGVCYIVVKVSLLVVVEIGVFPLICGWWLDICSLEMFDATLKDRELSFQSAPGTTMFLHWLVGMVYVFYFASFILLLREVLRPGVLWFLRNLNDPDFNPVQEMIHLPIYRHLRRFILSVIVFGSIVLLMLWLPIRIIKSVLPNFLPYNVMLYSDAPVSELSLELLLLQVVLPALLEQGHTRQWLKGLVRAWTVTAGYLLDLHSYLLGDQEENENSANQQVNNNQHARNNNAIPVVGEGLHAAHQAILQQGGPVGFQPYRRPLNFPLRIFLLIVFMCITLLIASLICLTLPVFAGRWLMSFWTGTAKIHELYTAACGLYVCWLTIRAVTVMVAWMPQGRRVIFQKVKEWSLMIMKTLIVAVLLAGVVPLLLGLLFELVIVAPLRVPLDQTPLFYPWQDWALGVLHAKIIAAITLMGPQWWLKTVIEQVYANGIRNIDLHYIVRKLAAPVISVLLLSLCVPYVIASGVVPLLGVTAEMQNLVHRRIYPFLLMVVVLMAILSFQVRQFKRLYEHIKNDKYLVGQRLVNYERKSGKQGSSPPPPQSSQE

T2: HA-MARCH6 (wild type) (human) (UniProt O60337)
T2 sequence: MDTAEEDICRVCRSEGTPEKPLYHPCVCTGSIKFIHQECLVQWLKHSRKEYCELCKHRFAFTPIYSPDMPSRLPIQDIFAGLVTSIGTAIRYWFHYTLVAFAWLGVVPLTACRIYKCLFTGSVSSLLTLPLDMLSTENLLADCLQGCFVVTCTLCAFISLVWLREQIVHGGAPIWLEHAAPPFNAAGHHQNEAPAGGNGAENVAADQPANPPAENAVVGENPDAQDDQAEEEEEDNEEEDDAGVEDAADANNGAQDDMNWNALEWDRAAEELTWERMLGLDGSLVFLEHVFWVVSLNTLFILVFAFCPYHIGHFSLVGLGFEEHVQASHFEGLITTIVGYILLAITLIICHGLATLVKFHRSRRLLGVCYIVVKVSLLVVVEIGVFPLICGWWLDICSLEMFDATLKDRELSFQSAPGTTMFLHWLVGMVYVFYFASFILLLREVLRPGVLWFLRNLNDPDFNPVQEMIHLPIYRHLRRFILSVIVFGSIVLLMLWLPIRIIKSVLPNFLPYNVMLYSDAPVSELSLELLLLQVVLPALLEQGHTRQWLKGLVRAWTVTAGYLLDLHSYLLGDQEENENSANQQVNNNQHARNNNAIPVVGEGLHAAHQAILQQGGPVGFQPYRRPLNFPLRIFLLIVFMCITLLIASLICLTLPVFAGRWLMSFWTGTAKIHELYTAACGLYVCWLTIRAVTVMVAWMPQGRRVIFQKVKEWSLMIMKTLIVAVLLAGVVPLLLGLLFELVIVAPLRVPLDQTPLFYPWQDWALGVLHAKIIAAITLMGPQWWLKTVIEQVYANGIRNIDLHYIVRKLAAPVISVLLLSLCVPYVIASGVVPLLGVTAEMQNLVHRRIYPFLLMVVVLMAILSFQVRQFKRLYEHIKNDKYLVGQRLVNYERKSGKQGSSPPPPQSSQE


Experiments:
[1] = biological target: T1, MARCH6 C9A-HA (catalytically inactive MARCH6) (human); test: co-IP; HeLa cells stably expressing MARCH6 C9A-HA with or without FLAG-UBE2J2; lysed in 1% digitonin, immunoprecipitated with an HA antibody, washed with 1% Triton X-100; blot for FLAG-UBE2J2
[2] = biological target: T2, HA-MARCH6 (wild type) (human); test: co-IP; immunoprecipitation of HA-tagged MARCH6 or MARCH6 C9A, blot for endogenous SPP (Appendix Fig S6A and B; legend not shown)
[3] = biological target: T1, MARCH6 C9A-HA (catalytically inactive MARCH6) (human); test: as above

Row | binding [1] | binding [2] | binding [3] | Binder
1 | binds |  |  | FLAG-UBE2J2 (enzyme, UniProt Q8N2K1 1-259) MSSTSSKRAPTTATQRLKQDYLRIKKDPVPYICAEPLPSNILEWHYVVRGPEMTPYEGGYYHGKLIFPREFPFKPPSIYMITPNGRFKCNTRLCLSITDFHPDTWNPAWSVSTILTGLLSFMVEKGPTLGSIETSDFTKRQLAVQSLAFNLKDKVFCELFPEVVEEIKQKQKAQDELSSRPQTLPLPDVVPDGETHLVQNGIQLLNGHAPGAVPNLAGLQQANRHHGLLGGALANLFVIVGFAAFAYTVKYVLRSIAQE
2 |  | binds | binds | signal peptide peptidase (SPP), endogenous (enzyme, UniProt Q8TCT9 1-377) MDSALSDPHNGSAEAGGPTNSTTRPPSTPEGIALAYGSLLLMALLPIFFGALRSVRCARGKNASDMPETITSRDAARFPIIASCTLLGLYLFFKIFSQEYINLLLSMYFFVLGILALSHTISPFMNKFFPASFPNRQYQLLFTQGSGENKEEIINYEFDTKDLVCLGLSSIVGVWYLLRKHWIANNLFGLAFSLNGVELLHLNNVSTGCILLGGLFIYDVFWVFGTNVMVTVAKSFEAPIKLVFPQDLLEKGLEANNFAMLGLGDVVIPGIFIALLLRFDISLKKNTHTYFYTSFAAYIFGLGLTIFIMHIFKHAQPALLYLVPACIGFPVLVALAKGEVTEMFSYEESNPKDPAAVTESKEGTEASASKGLEKKEK
